Taken from: PubChem BioAssay AID1224830 (NIAID, 2016)
Screen: 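Host factors that control LPS-induced TNF expression in human macrophages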 (primary screen). Cells: human THP-1 monocytic leukaemia cells, TNF dual-luciferase reporter clone, PMA-differentiated to macrophage-like cells. Reagents: siRNA pool against human genes, 50 nM. Time to read-out: LPS for 4 h, given about 3 days after siRNA transfection. Treatment: bacterial LPS (TLR4 ligand), 10 ng/ml. Measured: 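Ratio of firefly to renilla light, scaled to the plate median and expressed as a robust z-score per replicate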. Direction: TNF reporter robust z-score: higher = stronger TNF reporter response to LPS. Call rule: 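a well is active when its z-score exceeds 2.8 or falls below -1.5; control wells carry no call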.
The deposit covers about 18,000 reagents; shown is a random part of them. In the full data, about 2,900 (16%) are marked active. 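Calls are made per well; low scores hint the gene aids the LPS response, high scores that it dampens it.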 Unmarked entries are inactive. Repeated entries: four replicate wells of each siRNA pool.

{"gene knocked down":"LDHAL6A","TNF reporter robust z-score":-0.69}
{"gene knocked down":"LDHAL6A","TNF reporter robust z-score":0.19}
{"gene knocked down":"LDHAL6A","TNF reporter robust z-score":0.08}
{"gene knocked down":"LDHAL6A","TNF reporter robust z-score":1.3}
{"gene knocked down":"ZNF547","TNF reporter robust z-score":-0.19}
{"gene knocked down":"ZNF547","TNF reporter robust z-score":1.14}
{"gene knocked down":"ZNF547","TNF reporter robust z-score":-0.63}
{"gene knocked down":"ZNF547","TNF reporter robust z-score":1.53}
{"gene knocked down":"CDK18","TNF reporter robust z-score":0.36}
{"gene knocked down":"CDK18","TNF reporter robust z-score":-0.64}
{"gene knocked down":"CDK18","TNF reporter robust z-score":0.27}
{"gene knocked down":"CDK18","TNF reporter robust z-score":0.46}
{"gene knocked down":"TMEM244","TNF reporter robust z-score":-0.92}
{"gene knocked down":"TMEM244","TNF reporter robust z-score":-0.48}
{"gene knocked down":"TMEM244","TNF reporter robust z-score":1.5}
{"gene knocked down":"TMEM244","TNF reporter robust z-score":1.47}
{"gene knocked down":"CTPS1","TNF reporter robust z-score":0.3}
{"gene knocked down":"CTPS1","TNF reporter robust z-score":-0.34}
{"gene knocked down":"CTPS1","TNF reporter robust z-score":-0.33}
{"gene knocked down":"CTPS1","TNF reporter robust z-score":0.65}
{"gene knocked down":"ZMYM5","TNF reporter robust z-score":-0.91}
{"gene knocked down":"ZMYM5","TNF reporter robust z-score":0.34}
{"gene knocked down":"ZMYM5","TNF reporter robust z-score":0.36}
{"gene knocked down":"ZMYM5","TNF reporter robust z-score":-0.05}
{"gene knocked down":"TIMCC","TNF reporter robust z-score":0.11}
{"gene knocked down":"TIMCC","TNF reporter robust z-score":-0.79}
{"gene knocked down":"TIMCC","TNF reporter robust z-score":-0.96}
{"gene knocked down":"TIMCC","TNF reporter robust z-score":-0.78}
{"gene knocked down":"XKR6","TNF reporter robust z-score":1.91}
{"gene knocked down":"XKR6","TNF reporter robust z-score":2.65}
{"gene knocked down":"XKR6","TNF reporter robust z-score":1.05}
{"gene knocked down":"XKR6","TNF reporter robust z-score":0.54}
{"gene knocked down":"SLC17A2","TNF reporter robust z-score":0.66}
{"gene knocked down":"SLC17A2","TNF reporter robust z-score":0.85}
{"gene knocked down":"SLC17A2","TNF reporter robust z-score":1.4}
{"gene knocked down":"SLC17A2","TNF reporter robust z-score":0.69}
{"gene knocked down":"XKRYP7","TNF reporter robust z-score":0}
{"gene knocked down":"XKRYP7","TNF reporter robust z-score":-0.25}
{"gene knocked down":"XKRYP7","TNF reporter robust z-score":-0.86}
{"gene knocked down":"XKRYP7","TNF reporter robust z-score":-0.59}
{"gene knocked down":"FAM53A","TNF reporter robust z-score":-1.48}
{"gene knocked down":"FAM53A","TNF reporter robust z-score":-0.98}
{"gene knocked down":"FAM53A","TNF reporter robust z-score":-1.15}
{"gene knocked down":"FAM53A","TNF reporter robust z-score":-0.45}
{"gene knocked down":"HUWE1","TNF reporter robust z-score":-0.31}
{"gene knocked down":"HUWE1","TNF reporter robust z-score":-0.72}
{"gene knocked down":"HUWE1","TNF reporter robust z-score":0.12}
{"gene knocked down":"HUWE1","TNF reporter robust z-score":0.62}

5 successive reagents from above, for reference:
{"gene knocked down":"SLC17A2","TNF reporter robust z-score":0.69}
{"gene knocked down":"XKRYP7","TNF reporter robust z-score":0}
{"gene knocked down":"XKRYP7","TNF reporter robust z-score":-0.25}
{"gene knocked down":"XKRYP7","TNF reporter robust z-score":-0.86}
{"gene knocked down":"XKRYP7","TNF reporter robust z-score":-0.59}
